Construct, isoform or probe ends are uncertain for at least one entry. For some assays here: At least one verdict rests on a figure or table, not on a statement of the authors. Protein sequences can lack the tags named with them.

This is an account of results in paper PMC7913688, “Human Rev1 relies on insert-2 to promote selective binding and accurate replication of stabilized G-quadruplex motifs”.

Series [1] addresses T1, hRev1 330-833 polymerase core (human) (UniProt Q9UBZ9).
T1 sequence (looked up): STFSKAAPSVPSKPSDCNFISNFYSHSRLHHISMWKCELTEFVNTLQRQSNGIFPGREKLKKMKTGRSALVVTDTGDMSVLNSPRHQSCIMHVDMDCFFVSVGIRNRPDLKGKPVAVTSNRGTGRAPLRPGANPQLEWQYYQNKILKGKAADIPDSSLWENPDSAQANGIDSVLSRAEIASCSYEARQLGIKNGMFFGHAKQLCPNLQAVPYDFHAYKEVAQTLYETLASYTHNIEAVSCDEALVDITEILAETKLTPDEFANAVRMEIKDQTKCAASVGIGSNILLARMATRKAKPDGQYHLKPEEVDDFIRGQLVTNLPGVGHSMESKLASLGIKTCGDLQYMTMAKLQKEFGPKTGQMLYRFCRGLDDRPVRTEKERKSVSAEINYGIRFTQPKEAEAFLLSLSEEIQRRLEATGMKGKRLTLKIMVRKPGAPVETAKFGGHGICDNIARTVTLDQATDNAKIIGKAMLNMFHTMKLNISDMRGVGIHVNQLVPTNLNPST
The series is described as follows: fluorescence polarization. The following applies: Fluorescence polarization: 1 nM FAM-DNA, 100 mM KCl or LiCl, DNA annealed in 50 mM HEPES pH 7.5, temperature not stated, recombinant protein, residues 330-833. For orientation: In fluorescence polarisation assays a small probe gives low polarisation when free and higher when bound to something large.

The target in series [2] is T2, hRev1 full-length (human) (UniProt Q9UBZ9).
T2 sequence (looked up): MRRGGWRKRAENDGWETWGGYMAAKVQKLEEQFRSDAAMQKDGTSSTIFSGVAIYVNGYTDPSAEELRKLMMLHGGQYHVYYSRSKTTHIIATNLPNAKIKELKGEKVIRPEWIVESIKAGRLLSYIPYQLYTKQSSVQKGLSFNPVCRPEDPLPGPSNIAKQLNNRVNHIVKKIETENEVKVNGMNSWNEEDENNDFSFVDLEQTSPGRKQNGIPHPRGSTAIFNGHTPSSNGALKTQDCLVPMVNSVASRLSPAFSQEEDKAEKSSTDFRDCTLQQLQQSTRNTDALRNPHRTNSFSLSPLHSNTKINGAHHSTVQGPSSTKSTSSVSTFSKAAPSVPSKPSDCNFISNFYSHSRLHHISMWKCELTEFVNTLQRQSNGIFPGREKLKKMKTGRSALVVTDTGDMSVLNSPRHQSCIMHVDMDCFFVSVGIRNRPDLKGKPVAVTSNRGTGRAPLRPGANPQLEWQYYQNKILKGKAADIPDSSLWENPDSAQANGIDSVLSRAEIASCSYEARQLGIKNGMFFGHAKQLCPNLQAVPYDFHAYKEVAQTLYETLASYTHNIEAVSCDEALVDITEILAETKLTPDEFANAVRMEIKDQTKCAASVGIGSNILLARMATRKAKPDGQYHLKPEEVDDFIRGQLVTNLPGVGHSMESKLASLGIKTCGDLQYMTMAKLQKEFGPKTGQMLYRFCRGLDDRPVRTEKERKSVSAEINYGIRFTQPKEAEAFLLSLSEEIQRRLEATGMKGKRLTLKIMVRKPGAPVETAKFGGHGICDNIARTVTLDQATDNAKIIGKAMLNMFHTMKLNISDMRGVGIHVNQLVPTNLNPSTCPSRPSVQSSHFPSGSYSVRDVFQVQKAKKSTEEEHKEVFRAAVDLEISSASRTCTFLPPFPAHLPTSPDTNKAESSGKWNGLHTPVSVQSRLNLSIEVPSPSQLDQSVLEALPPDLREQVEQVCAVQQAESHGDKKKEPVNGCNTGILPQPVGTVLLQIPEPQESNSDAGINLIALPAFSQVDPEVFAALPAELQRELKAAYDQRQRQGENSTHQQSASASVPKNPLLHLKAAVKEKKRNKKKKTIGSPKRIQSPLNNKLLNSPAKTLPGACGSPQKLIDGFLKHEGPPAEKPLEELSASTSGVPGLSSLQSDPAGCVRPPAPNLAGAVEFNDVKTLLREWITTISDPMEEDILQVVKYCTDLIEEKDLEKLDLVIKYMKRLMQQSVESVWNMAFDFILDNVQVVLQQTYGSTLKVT
The series is described as follows: HPG arginine footprinting-MS. The following applies: 100 mM KCl, Footprinting: 50 mM HEPES pH 7.5, 100 mM KCl, 10 uM protein, 30 uM ssDNA, room temperature, recombinant protein, residues 1-1251, label: 5'-FAM, folded or branched DNA.

Where [3] appears, read: 100 mM LiCl, label: 5'-FAM, folded or branched DNA.
The mark [4] stands for this setting: 100 mM KCl, label: 5'-FAM on template.

As to “AGGGGCGGGCGCTTTAGGAAAAGGGCGGGTTATGAGATGAT [Bcl2 1245 ss G4]”, in series [1] (setting [3]), the equilibrium dissociation constant (Kd) came out at 0.2 µM.
As to “TTGGGTTAGGGTTAGGGTTAGGGATATGAGATGAT [hTelo-4 ss G4]”, the Kd in series [1] (100 mM LiCl (text: 634 +/- 105), label: 5'-FAM, folded or branched DNA) turned out to be 0.63 µM.
In the case of TGGTTGGTGTGGTTGGTATGAGATGAT [TBA ss G4], in series [2] (label not stated, R458, R618, R696 protected), the binding result is listed as “binds”.
Turning to “AGGGTGGGTAGGGTGGGTTATGAGATGAT [Myc 14/23 ss G4]”, the Kd in series [1] (setting [3]) was determined as 0.22 µM. For the same sequence, the binding result in series [2] (ss-Myc G4 (14/23 and label not stated), R436, R458, R618, R742, R760 protected) was “binds”.
As to “AGGGCGGTGTGGGAAGAGGGAATATGAGATGAT [KRAS 22RT ss G4]”, in series [1] (setting [3]), the Kd was 0.25 µM.
Take “AGCGTGCGTAGCGTGCGTTATGAGATGAT / ATCATCTCATA [Non-G4 Myc primer-template]”: the Kd in series [1] (setting [4]) came out at 0.77 µM.
As for “TTGCGTTAGCGTTAGCGTTAGCGATATGAGATGAT / ATCATCTCATA [Non-G4 Telo-4 primer-template]”, the Kd in series [1] (setting [4]) is 1.6 µM.
“AGGGCGGGGCCGGGGAGGGTATGAGATGAT [Rev1-prom ss G4]”: in series [1] (setting [3]), the Kd was found to be 0.18 µM.
As to “TGCTTGCTGTGCTTGCTATGAGATGAT / ATCATCTCATA [Non-G4 TBA primer-template]”, the Kd in series [1] (setting [4]) amounted to 0.27 µM.
Consider “AGGGAGGGTGGGAAGGGTTATGAGATGAT [Myc 2/11 ss G4]”, for which the Kd in series [1] (setting [3]) is 0.09 µM.

One may read the Kd as the constant that tells how readily two partners part at equilibrium.
